From doi:10.1101/2023.11.06.565240
Results are given in words; binding and its absence hold for the method and conditions named. Binding seen in cells or lysates may run through a third protein. A yes stands for co-enrichment or nearness to the bait. Other partners may have been found.

Target: T1, EIF2A (human (endogenous in HEK293T)) (UniProt Q9BY44)
T1 sequence: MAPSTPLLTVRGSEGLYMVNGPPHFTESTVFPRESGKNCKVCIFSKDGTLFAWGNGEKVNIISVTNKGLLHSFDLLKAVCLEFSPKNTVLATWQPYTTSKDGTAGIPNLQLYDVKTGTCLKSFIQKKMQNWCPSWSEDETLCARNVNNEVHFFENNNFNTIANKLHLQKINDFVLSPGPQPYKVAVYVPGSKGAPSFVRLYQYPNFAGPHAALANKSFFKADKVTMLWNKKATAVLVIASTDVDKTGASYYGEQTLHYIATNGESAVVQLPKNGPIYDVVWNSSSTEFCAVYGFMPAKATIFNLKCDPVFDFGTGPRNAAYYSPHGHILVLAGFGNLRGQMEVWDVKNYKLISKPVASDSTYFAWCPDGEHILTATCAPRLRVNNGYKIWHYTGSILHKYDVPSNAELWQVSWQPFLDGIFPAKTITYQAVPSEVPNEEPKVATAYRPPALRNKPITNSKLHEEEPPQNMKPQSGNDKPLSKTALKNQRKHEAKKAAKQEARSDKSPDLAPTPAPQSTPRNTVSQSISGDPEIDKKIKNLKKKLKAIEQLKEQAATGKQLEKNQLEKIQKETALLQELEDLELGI
Assay: affinity purification with mass spectrometry

## mitochondrial ribosomal small subunit MRPS9 (human (endogenous in HEK293T))
  binding: binds
